Reference: publication PMC11208909
Changes are numbered by the printed parent chain. In names and notes the source's numbering stands. These are yes or no findings as the source states them, for the method shown. In cells and extracts the contact can be indirect. Some results given as binding are weak or reduced against the parent protein; the word gives no strength. For some of these results: Where a sequence is shown, tags or fusion partners need not be part of it. Blank lines part the entries; values can stand above or below the binder they belong to.

Amino acid sequences for entries named in this document (tags omitted).
UniProt Q92547: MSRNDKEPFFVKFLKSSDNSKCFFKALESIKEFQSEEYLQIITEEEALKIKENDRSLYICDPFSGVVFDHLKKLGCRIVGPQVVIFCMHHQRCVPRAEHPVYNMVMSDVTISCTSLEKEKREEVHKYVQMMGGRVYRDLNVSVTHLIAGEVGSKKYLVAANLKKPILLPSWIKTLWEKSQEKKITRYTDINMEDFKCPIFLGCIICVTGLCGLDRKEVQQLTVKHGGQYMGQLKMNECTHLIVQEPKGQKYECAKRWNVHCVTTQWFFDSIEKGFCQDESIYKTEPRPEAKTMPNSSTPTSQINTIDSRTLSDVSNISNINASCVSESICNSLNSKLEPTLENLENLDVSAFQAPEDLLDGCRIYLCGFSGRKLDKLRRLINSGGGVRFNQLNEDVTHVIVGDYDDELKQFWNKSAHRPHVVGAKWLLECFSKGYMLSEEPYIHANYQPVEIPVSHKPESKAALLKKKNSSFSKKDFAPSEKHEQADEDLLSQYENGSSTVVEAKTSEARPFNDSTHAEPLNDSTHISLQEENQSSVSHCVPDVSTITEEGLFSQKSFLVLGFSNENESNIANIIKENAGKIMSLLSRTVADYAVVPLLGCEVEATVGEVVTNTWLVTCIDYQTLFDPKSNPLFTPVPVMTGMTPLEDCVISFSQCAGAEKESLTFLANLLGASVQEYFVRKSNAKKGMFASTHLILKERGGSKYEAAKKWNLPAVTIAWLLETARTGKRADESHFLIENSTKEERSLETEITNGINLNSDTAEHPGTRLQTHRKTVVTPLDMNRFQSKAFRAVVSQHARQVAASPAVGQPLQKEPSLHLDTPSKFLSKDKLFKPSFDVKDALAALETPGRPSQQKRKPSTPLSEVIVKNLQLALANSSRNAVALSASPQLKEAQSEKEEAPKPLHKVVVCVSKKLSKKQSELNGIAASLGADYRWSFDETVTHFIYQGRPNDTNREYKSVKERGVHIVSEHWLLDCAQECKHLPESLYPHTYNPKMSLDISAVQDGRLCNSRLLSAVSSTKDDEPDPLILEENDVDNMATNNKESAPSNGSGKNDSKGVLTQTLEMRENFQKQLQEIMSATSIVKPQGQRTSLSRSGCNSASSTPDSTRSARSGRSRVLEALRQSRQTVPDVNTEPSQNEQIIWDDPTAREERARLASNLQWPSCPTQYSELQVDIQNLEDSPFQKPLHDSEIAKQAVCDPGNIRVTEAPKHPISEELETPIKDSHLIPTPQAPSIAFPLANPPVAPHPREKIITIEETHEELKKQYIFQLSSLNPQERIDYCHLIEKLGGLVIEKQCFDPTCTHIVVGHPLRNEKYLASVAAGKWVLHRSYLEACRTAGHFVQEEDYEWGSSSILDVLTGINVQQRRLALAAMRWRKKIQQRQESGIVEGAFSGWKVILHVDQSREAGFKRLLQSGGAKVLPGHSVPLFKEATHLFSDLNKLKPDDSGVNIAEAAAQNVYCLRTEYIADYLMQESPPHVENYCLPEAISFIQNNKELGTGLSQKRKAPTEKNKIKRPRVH

How the values were obtained:
[1] = molecular target: TOPBP1 (human (endogenous in MDA-MB-231, BT-549, T-47D)) (UniProt Q92547); experiment: co-IP; endogenous proteins; cellular extracts in NETN buffer (50 mM Tris-HCl pH 8.0, 150 mM NaCl, 0.2% NP-40, 2 mM EDTA) of MDA-MB-231, BT-549 and T-47D cells, with or without CK2 inhibitor CX-4945 (10 uM, 4 h); antibody 12 h at 4 C, protein G magnetic beads, Western blotting
[2] = molecular target: TOPBP1 (human (endogenous in MDA-MB-231, BT-549, T-47D)) (UniProt Q92547); experiment: co-IP; FLAG-tagged HTATSF1 wildtype or point mutants expressed in breast cancer cells, endogenous TOPBP1; cellular extracts in NETN buffer (50 mM Tris-HCl pH 8.0, 150 mM NaCl, 0.2% NP-40, 2 mM EDTA), Western blotting

binding [1]: binds
B1: HIV Tat-specific factor 1 (HTATSF1), endogenous (protein, UniProt O43719 1-755)
chain: MSGTNLDGNDEFDEQLRMQELYGDGKDGDTQTDAGGEPDSLGQQPTDTPYEWDLDKKAWFPKITEDFIATYQANYGFSNDGASSSTANVEDVHARTAEEPPQEKAPEPTDARKKGEKRKAESGWFHVEEDRNTNVYVSGLPPDITVDEFIQLMSKFGIIMRDPQTEEFKVKLYKDNQGNLKGDGLCCYLKRESVELALKLLDEDEIRGYKLHVEVAKFQLKGEYDASKKKKKCKDYKKKLSMQQKQLDWRPERRAGPSRMRHERVVIIKNMFHPMDFEDDPLVLNEIREDLRVECSKFGQIRKLLLFDRHPDGVASVSFRDPEEADYCIQTLDGRWFGGRQITAQAWDGTTDYQVEETSREREERLRGWEAFLNAPEANRGLRRSDSVSASERAGPSRARHFSEHPSTSKMNAQETATGMAFEEPIDEKKFEKTEDGGEFEEGASENNAKESSPEKEAEEGCPEKESEEGCPKRGFEGSCSQKESEEGNPVRGSEEDSPKKESKKKTLKNDCEENGLAKESEDDLNKESEEEVGPTKESEEDDSEKESDEDCSEKQSEDGSEREFEENGLEKDLDEEGSEKELHENVLDKELEENDSENSEFEDDGSEKVLDEEGSEREFDEDSDEKEEEEDTYEKVFDDESDEKEDEEYADEKGLEAADKKAEEGDADEKLFEESDDKEDEDADGKEVEDADEKLFEDDDSNEKLFDEEEDSSEKLFDDSDERGTLGGFGSVEEGPLSTGSSFILSSDDDDDDI
modifications: phosphoserine at 748 (pS748, CK2-driven; detected in these cells)

binding [2]: binds
B2: FLAG-tagged HTATSF1/S748D (protein, UniProt O43719 1-755)
chain: B1 chain with S748D

binding [2]: no binding
B3: FLAG-tagged HTATSF1/S748A (protein, UniProt O43719 1-755)
chain: B1 chain with S748A

binding [2]: binds
B4: FLAG-tagged HTATSF1 wildtype (protein, UniProt O43719 1-755)
chain: B1 chain
